Test system: heat-resistant proteins of human plasma
Test: LC/MS of heat-resistant proteins in plasma after exposure to proteinase K and boiling
Settings: LC/MS; healthy human blood plasma after incubation for 30 minutes with Proteinase K, following heating for 100° C. for 5 minutes (probe_2)

Row | Substance | N-plasma + pK
1 | CO8G_HUMAN | 1
2 | CO3_HUMAN | 88
3 | HEMO_HUMAN | 53
4 | IGLC7_HUMAN | 13
5 | TRFE_HUMAN | 134
6 | CO6_HUMAN | 4
7 | CON_Q2UVX4 | 6
8 | KV105_HUMAN | 1
9 | IC1_HUMAN | 8
10 | TRFE_HUMAN [TRFE_HUMAN [2]] | 135
11 | PLMN_HUMAN | 22

— patent US12535491B2, “Vaccine comprising protein-targeted (PT) extracellular DNA isolated from bacterial matrix” (priority 2018, dated 2026)
